In the supplement of paper PMC6411743:
± gives the standard deviation of the averaged measurements. This is a selection; strong and weak results do not stand in their true shares.

Amino acid sequences for entries named in this document (tags omitted). A change or cut given only in a name is not applied to a line headed by its entry.
UniProt P09564: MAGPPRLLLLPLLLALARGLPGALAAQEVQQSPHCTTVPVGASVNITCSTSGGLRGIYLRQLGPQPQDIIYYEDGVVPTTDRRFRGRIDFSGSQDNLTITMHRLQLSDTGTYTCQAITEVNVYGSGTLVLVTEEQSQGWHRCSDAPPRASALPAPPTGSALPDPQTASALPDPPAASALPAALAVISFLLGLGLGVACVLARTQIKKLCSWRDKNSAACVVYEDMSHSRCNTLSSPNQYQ
UniProt P08311: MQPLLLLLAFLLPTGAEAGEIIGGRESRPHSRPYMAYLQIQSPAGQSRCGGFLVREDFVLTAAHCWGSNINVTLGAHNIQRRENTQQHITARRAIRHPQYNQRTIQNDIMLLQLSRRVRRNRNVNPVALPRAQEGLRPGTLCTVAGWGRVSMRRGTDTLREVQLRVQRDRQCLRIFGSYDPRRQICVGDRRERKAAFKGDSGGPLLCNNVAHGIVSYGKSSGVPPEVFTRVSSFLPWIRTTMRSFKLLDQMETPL
UniProt P01737: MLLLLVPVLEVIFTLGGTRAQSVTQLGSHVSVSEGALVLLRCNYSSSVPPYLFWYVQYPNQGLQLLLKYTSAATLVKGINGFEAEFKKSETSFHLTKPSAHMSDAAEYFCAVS
UniProt P00167, whole entry: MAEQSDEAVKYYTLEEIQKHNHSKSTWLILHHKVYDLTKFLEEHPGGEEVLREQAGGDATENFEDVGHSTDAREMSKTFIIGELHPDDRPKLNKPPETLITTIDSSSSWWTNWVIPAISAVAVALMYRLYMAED
UniProt P08559, whole entry: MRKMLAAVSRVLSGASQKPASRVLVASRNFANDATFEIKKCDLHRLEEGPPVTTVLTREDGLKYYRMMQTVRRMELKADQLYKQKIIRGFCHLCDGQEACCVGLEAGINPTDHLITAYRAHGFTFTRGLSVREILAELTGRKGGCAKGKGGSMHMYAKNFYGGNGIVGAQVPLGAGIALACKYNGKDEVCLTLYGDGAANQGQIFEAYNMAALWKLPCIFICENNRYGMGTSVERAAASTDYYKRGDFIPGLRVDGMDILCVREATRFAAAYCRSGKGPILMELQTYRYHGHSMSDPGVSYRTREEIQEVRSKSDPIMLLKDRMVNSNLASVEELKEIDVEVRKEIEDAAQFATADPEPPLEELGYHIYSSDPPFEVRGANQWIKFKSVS
UniProt O95848: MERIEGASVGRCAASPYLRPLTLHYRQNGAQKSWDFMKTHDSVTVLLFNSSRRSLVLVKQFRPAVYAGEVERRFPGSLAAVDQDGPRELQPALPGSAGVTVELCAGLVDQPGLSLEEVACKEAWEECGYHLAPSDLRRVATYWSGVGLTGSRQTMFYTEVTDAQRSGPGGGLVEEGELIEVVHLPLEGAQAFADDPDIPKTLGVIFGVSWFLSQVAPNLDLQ
UniProt P04183: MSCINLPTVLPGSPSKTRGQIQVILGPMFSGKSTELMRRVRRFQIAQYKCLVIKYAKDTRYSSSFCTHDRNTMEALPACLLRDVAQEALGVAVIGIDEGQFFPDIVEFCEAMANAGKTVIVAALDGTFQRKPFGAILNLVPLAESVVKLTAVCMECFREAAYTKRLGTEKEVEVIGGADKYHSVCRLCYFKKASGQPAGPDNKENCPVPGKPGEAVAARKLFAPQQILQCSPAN
UniProt P06127: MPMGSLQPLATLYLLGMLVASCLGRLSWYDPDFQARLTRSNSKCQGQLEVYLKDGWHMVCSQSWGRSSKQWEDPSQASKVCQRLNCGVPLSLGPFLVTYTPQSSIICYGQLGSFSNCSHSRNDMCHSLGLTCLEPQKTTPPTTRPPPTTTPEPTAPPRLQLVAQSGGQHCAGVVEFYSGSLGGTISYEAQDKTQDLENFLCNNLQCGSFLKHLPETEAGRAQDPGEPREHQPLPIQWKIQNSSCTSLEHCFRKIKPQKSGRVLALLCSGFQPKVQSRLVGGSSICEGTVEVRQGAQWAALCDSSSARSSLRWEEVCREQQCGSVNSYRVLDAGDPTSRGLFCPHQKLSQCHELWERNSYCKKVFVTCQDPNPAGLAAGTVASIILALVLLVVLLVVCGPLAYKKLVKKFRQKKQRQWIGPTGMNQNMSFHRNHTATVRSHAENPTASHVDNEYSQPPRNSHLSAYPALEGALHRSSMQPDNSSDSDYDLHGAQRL
UniProt O95865: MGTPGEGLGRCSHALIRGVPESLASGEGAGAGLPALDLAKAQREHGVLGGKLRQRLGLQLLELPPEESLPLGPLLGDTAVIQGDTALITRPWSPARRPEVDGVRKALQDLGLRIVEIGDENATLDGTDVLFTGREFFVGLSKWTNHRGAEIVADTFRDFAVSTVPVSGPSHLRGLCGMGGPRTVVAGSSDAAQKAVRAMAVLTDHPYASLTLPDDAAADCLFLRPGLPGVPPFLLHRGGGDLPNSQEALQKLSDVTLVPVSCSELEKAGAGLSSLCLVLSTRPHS
UniProt P12074, whole entry: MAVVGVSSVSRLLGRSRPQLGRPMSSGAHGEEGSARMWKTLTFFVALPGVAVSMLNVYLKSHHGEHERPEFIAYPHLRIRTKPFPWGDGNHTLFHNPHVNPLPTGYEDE
UniProt P12235: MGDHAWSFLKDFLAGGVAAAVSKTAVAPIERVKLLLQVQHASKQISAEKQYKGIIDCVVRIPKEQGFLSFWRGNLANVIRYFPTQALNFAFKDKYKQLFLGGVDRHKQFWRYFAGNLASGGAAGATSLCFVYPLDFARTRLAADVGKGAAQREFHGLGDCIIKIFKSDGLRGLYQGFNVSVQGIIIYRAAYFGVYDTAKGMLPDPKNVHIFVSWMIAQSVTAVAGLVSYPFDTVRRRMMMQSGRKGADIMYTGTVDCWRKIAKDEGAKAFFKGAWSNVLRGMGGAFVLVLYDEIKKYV
UniProt P13667: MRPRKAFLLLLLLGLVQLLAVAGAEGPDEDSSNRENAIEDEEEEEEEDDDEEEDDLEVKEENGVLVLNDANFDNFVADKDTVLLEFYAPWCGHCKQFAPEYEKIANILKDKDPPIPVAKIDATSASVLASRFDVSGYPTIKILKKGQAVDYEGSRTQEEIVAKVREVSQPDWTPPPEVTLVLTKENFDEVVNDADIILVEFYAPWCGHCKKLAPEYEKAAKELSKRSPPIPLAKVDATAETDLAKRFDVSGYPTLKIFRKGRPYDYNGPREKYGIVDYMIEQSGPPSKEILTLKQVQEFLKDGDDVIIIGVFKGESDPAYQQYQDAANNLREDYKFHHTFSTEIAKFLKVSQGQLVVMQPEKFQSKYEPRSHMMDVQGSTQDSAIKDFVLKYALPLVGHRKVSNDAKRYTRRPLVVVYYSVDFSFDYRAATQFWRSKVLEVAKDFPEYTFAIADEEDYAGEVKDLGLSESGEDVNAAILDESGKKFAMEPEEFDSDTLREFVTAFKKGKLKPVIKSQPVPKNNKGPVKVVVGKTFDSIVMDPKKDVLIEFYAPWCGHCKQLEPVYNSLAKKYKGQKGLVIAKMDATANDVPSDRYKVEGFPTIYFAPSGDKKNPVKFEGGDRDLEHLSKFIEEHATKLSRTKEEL
UniProt P10619: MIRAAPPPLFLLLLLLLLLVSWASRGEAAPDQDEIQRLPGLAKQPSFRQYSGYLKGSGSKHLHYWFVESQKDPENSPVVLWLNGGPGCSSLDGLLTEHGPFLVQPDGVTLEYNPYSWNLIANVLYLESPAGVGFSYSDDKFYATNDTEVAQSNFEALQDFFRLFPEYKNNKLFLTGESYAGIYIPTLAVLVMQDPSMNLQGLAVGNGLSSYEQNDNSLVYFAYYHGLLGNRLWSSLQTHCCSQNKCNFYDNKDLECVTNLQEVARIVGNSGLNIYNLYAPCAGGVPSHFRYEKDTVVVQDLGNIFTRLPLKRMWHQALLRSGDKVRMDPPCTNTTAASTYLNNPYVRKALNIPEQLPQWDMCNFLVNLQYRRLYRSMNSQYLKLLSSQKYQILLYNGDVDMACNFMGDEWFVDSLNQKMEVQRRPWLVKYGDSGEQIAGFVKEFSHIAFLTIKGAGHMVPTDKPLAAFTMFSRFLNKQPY
UniProt P09651: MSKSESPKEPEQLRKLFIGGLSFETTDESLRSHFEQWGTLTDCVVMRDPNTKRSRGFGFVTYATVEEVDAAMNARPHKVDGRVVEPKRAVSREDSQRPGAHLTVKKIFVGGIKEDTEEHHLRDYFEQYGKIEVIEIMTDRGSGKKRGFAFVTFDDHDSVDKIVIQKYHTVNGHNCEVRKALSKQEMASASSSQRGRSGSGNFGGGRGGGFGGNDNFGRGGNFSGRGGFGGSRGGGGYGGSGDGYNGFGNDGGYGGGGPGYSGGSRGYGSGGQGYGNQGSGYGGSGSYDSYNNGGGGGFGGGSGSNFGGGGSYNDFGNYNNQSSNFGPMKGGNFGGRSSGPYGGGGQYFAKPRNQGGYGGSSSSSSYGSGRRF
UniProt P07311: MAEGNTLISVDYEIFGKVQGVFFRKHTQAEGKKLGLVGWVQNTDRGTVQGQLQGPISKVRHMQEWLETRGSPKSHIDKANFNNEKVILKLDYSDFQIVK
UniProt P02794, whole entry: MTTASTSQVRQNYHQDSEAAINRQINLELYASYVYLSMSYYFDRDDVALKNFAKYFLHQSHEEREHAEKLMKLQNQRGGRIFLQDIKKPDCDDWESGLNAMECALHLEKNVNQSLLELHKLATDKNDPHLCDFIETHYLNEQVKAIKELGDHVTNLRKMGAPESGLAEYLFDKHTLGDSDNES
UniProt P07195, whole entry, looked up: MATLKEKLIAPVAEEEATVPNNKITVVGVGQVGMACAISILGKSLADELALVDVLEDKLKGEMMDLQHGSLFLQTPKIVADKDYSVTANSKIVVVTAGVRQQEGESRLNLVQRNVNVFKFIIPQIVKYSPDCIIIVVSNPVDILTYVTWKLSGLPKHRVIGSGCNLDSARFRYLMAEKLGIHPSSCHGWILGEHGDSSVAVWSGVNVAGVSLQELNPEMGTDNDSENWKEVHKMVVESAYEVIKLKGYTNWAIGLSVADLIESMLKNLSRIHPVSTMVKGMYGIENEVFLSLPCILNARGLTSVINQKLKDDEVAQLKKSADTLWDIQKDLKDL
UniProt P11802: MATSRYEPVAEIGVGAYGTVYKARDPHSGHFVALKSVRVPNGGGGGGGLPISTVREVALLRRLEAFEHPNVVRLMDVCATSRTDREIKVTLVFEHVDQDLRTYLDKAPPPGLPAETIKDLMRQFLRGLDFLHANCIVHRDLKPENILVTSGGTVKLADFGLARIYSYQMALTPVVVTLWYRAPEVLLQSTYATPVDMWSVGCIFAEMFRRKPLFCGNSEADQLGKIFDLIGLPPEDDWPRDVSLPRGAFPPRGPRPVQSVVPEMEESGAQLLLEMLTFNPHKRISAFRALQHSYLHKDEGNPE
UniProt P12956: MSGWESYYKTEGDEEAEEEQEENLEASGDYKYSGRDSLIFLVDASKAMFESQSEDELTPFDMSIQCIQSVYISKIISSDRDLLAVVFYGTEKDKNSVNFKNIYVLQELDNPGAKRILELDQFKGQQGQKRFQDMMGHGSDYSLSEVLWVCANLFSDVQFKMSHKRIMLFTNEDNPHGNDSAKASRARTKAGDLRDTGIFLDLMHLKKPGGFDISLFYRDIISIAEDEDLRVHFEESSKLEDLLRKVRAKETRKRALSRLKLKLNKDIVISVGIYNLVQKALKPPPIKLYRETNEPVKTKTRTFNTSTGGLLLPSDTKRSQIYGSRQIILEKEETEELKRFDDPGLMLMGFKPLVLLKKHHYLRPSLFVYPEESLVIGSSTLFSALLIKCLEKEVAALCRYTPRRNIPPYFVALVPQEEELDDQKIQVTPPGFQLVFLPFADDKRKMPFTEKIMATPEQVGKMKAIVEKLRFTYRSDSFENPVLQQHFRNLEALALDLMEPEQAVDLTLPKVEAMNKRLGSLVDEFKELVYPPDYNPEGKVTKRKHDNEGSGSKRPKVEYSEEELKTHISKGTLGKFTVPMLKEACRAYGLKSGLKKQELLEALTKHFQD
UniProt P10768: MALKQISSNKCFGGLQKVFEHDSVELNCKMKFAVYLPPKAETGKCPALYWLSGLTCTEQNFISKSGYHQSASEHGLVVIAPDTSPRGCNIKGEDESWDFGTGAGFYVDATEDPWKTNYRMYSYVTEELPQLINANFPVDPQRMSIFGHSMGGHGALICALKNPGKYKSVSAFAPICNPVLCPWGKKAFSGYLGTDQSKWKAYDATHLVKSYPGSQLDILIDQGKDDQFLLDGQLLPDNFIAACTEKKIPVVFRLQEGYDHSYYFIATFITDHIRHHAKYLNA
UniProt P14868: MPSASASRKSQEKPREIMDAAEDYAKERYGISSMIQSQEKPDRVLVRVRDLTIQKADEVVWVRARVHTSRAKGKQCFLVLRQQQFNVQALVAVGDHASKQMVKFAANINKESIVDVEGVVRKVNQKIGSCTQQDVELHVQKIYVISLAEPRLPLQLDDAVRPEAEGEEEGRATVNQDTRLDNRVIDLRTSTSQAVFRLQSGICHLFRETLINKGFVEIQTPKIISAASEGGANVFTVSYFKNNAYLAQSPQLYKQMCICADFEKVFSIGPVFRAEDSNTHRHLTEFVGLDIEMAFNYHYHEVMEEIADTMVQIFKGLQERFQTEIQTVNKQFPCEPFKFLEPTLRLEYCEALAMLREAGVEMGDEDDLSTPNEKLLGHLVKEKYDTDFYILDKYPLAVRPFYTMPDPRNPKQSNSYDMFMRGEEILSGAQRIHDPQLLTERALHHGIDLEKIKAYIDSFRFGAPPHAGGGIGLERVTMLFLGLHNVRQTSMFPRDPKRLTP

Compound: Nc1ncnc2c1ncn2[C@@H]1O[C@H](COP(=O)(O)OP(=O)(O)OP(=O)(O)O)[C@@H](O)[C@H]1O [adenosine triphosphate]
Assay: NP40-soluble protein abundance relative to vehicle (solubility fold change) (ratio); higher = more soluble protein in presence of ATP
Method in brief: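 Each value is a fold change relative to the detergent-processed vehicle, calculated per replicate from vsn-normalised intensities. Jurkat crude lysate received eight concentrations (0.1 to 10 mM) for 10 min at room temperature and 3 min at 37 °C, then was solubilised in 0.8% NP40 with benzonase (60 min, 4 °C). The ultracentrifuged supernatant was TMT-labelled and run by LC-MS/MS in three independent experiments.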

Target	NP40-soluble protein abundance (concentration: 1mM)	NP40-soluble protein abundance (concentration: 2mM)	NP40-soluble protein abundance (concentration: 4mM)	NP40-soluble protein abundance (concentration: 6mM)	NP40-soluble protein abundance (concentration: 8mM)	NP40-soluble protein abundance (concentration: 10mM)
UniProt P09564	1.03 ± 0.082	1.03 ± 0.043	1.07 ± 0.039	1.06 ± 0.099	1.02 ± 0.019	0.981 ± 0.049
CTSG (UniProt P08311)	0.986 ± 0.089	0.963 ± 0.13	0.957 ± 0.11	0.94 ± 0.14	0.89 ± 0.16	0.951 ± 0.16
BAG2 (UniProt O95816)	0.889 ± 0.044	0.79 ± 0.065	0.764 ± 0.088	0.768 ± 0.15	0.769 ± 0.092	0.755 ± 0.063
UniProt P01737	0.935 ± 0.023	0.949 ± 0.059	0.928 ± 0.055	0.956 ± 0.054	0.892 ± 0.048	0.901 ± 0.034
UniProt P05026 and related entries	1.08 ± 0.17	0.985 ± 0.044	0.9948 ± 0.005	0.98 ± 0.033	0.933 ± 0.042	0.948 ± 0.07
SYF2 (UniProt O95926)	0.699 ± 0.055	0.671 ± 0.08	0.704 ± 0.043	0.741 ± 0.16	0.8 ± 0.035	0.801 ± 0.079
ANXA5 (UniProt P08758)	0.922 ± 0.03	0.947 ± 0.042	0.891 ± 0.032	0.9 ± 0.1	0.889 ± 0.045	0.88 ± 0.051
UniProt P00338-3|P00338-2	1.05 ± 0.3	0.89 ± 0.14	1.03 ± 0.15	0.742 ± 0.11	0.972 ± 0.067	0.842 ± 0.15
CYB5A (UniProt P00167)	0.911 ± 0.012	0.899 ± 0.021	0.885 ± 0.017	0.8916 ± 0.0088	0.871 ± 0.031	0.839 ± 0.076
UniProt P08559 and related entries	1.09 ± 0.061	0.988 ± 0.033	0.931 ± 0.016	0.967 ± 0.13	0.963 ± 0.077	0.949 ± 0.059
ZBTB48 (UniProt P10074)	1.02 ± 0.068	0.983 ± 0.076	0.931 ± 0.047	0.987 ± 0.012	0.902 ± 0.082	0.972 ± 0.12
SLC2A1 (UniProt P11166)	0.939 ± 0.088	0.954 ± 0.043	0.956 ± 0.064	0.962 ± 0.036	0.929 ± 0.035	0.95 ± 0.022
UniProt P00387 and related entries	1.03 ± 0.14	1.01 ± 0.11	0.978 ± 0.06	0.873 ± 0.17	1.01 ± 0.055	0.997 ± 0.064
NUDT14 (UniProt O95848)	1.05 ± 0.012	1.09 ± 0.075	1.09 ± 0.034	1.04 ± 0.052	1 ± 0.066	1.09 ± 0.1
TK1 (UniProt P04183)	1.03 ± 0.065	1.017 ± 0.0086	1.03 ± 0.021	1.03 ± 0.016	1 ± 0.035	1.02 ± 0.03
UniProt P11908 and related entries	1.04 ± 0.097	0.947 ± 0.072	0.923 ± 0.056	0.874 ± 0.059	0.971 ± 0.019	0.937 ± 0.094
UniProt P07954-2	0.9521 ± 0.0089	0.934 ± 0.034	0.923 ± 0.016	0.945 ± 0.025	0.913 ± 0.022	0.909 ± 0.05
ACAA1 (UniProt P09110)	0.972 ± 0.041	1.01 ± 0.025	0.978 ± 0.011	0.983 ± 0.01	0.941 ± 0.011	0.97 ± 0.037
UniProt P01116-2|P01116	0.955 ± 0.085	0.983 ± 0.058	0.991 ± 0.042	0.982 ± 0.064	0.944 ± 0.087	0.993 ± 0.06
UniProt P11498 and related entries	1.04 ± 0.058	1.01 ± 0.037	0.999 ± 0.021	0.985 ± 0.051	1.02 ± 0.025	0.992 ± 0.012

Target	NP40-soluble protein abundance (concentration: 1mM)	NP40-soluble protein abundance (concentration: 2mM)	NP40-soluble protein abundance (concentration: 4mM)	NP40-soluble protein abundance (concentration: 6mM)	NP40-soluble protein abundance (concentration: 8mM)	NP40-soluble protein abundance (concentration: 10mM)
UniProt P06127	0.967 ± 0.083	1 ± 0.06	1.01 ± 0.039	1.03 ± 0.045	0.974 ± 0.025	0.937 ± 0.052
H2AFX (UniProt P16104)	0.857 ± 0.22	0.809 ± 0.15	0.778 ± 0.15	0.892 ± 0.15	0.592 ± 0.07	0.973 ± 0.31
RAF1 (UniProt P04049)	1.39 ± 0.046	1.41 ± 0.054	1.46 ± 0.058	1.41 ± 0.04	1.41 ± 0.096	1.48 ± 0.03
P0C0S8 and related entries (UniProt Q99878+Q96KK5+Q93077+Q6FI13+P0C0S8)	0.824 ± 0.2	0.683 ± 0.18	0.723 ± 0.14	0.686 ± 0.11	0.464 ± 0.067	1.03 ± 0.41
UniProt P11413 and related entries	1.01 ± 0.15	1 ± 0.12	0.969 ± 0.1	0.925 ± 0.16	1.01 ± 0.085	0.972 ± 0.071
VAV1 (UniProt P15498)	1.02 ± 0.13	1 ± 0.12	0.975 ± 0.094	0.912 ± 0.14	1.02 ± 0.06	0.971 ± 0.061
UniProt O96000 and related entries	1.03 ± 0.18	0.898 ± 0.089	0.918 ± 0.1	0.911 ± 0.14	0.934 ± 0.079	0.85 ± 0.15
DDAH2 (UniProt O95865)	0.973 ± 0.041	0.961 ± 0.02	0.956 ± 0.019	0.997 ± 0.039	0.947 ± 0.034	0.926 ± 0.033
ISG15 (UniProt P05161)	0.984 ± 0.078	0.989 ± 0.048	0.955 ± 0.036	0.949 ± 0.079	1 ± 0.064	0.969 ± 0.044
SLC25A6 (UniProt P12236)	0.932 ± 0.08	0.956 ± 0.055	0.925 ± 0.017	0.885 ± 0.091	0.93 ± 0.067	1.03 ± 0.092
P00395 and related entries (UniProt Q8IVS2)	0.957 ± 0.15	0.952 ± 0.11	0.912 ± 0.069	0.837 ± 0.13	0.97 ± 0.07	0.941 ± 0.042
PYGB (UniProt P11216)	0.845 ± 0.14	0.828 ± 0.068	0.956 ± 0.08	1.04 ± 0.056	1.27 ± 0.047	1.33 ± 0.048
P4HB (UniProt P07237)	0.906 ± 0.07	0.951 ± 0.012	0.843 ± 0.087	0.9899 ± 0.0063	0.902 ± 0.026	0.906 ± 0.045
ICAM2 (UniProt P13598)	0.921 ± 0.051	0.889 ± 0.051	0.876 ± 0.038	0.943 ± 0.012	0.869 ± 0.026	0.814 ± 0.089
COX6A1 (UniProt P12074)	0.973 ± 0.16	0.956 ± 0.16	0.964 ± 0.12	0.976 ± 0.13	0.998 ± 0.06	0.879 ± 0.12
VIM (UniProt P08670)	0.977 ± 0.027	0.97 ± 0.014	0.952 ± 0.037	0.999 ± 0.07	0.957 ± 0.033	0.952 ± 0.026
ANXA3 (UniProt P12429)	0.9552 ± 0.0091	0.992 ± 0.012	0.952 ± 0.032	0.986 ± 0.033	0.912 ± 0.033	0.922 ± 0.036
SLC25A4 (UniProt P12235)	0.958 ± 0.17	0.925 ± 0.076	0.924 ± 0.097	0.93 ± 0.076	0.945 ± 0.046	1 ± 0.088
PDIA4 (UniProt P13667)	0.981 ± 0.014	0.9605 ± 0.0066	0.9233 ± 0.0076	0.982 ± 0.025	0.935 ± 0.029	0.93 ± 0.034
GTF2F2 (UniProt P13984)	0.973 ± 0.013	0.981 ± 0.013	0.964 ± 0.038	1 ± 0.032	0.961 ± 0.035	0.965 ± 0.039

Target	NP40-soluble protein abundance (concentration: 1mM)	NP40-soluble protein abundance (concentration: 2mM)	NP40-soluble protein abundance (concentration: 4mM)	NP40-soluble protein abundance (concentration: 6mM)	NP40-soluble protein abundance (concentration: 8mM)	NP40-soluble protein abundance (concentration: 10mM)
UniProt P06454-2|B8ZZQ6 and related entries	0.925 ± 0.085	0.868 ± 0.043	0.904 ± 0.035	1.01 ± 0.11	0.844 ± 0.024	0.843 ± 0.073
UniProt P10619 and related entries	0.93 ± 0.036	0.9369 ± 0.0079	0.897 ± 0.035	0.863 ± 0.051	0.887 ± 0.018	0.886 ± 0.067
TXNDC12 (UniProt O95881)	0.953 ± 0.083	0.951 ± 0.018	0.913 ± 0.017	0.999 ± 0.052	0.948 ± 0.022	0.8716 ± 0.0075
UniProt P10586 and related entries	0.975 ± 0.02	1.02 ± 0.041	1.01 ± 0.066	1.01 ± 0.029	0.948 ± 0.041	0.988 ± 0.039
UniProt P09651 and related entries	1.06 ± 0.14	1.09 ± 0.12	1.07 ± 0.12	1.22 ± 0.17	1.1 ± 0.1	1.17 ± 0.075
ACYP1 (UniProt P07311)	0.916 ± 0.053	0.928 ± 0.018	0.884 ± 0.036	0.923 ± 0.033	0.873 ± 0.02	0.88 ± 0.049
UniProt P15529-2|P15529-3|P15529-4|P15529-5|P15529-6|P15529-7|P15529-16	0.929 ± 0.056	0.929 ± 0.059	0.938 ± 0.04	0.964 ± 0.03	0.9178 ± 0.0073	0.902 ± 0.033
FTH1 (UniProt P02794)	1.01 ± 0.17	0.965 ± 0.14	0.955 ± 0.11	1.01 ± 0.22	0.985 ± 0.11	0.916 ± 0.17
HSP90B1 (UniProt P14625)	0.941 ± 0.015	0.946 ± 0.03	0.91 ± 0.019	0.933 ± 0.049	0.909 ± 0.04	0.927 ± 0.049
LDHB (UniProt P07195)	0.855 ± 0.22	1.03 ± 0.12	0.815 ± 0.16	1 ± 0.1	1.01 ± 0.14	0.835 ± 0.19
UniProt P15882 and related entries	1.04 ± 0.025	1.027 ± 0.0095	0.99 ± 0.045	0.967 ± 0.022	1.041 ± 0.0092	1.02 ± 0.06
UniProt P11802 and related entries	1.02 ± 0.081	1.01 ± 0.054	0.988 ± 0.11	0.98 ± 0.087	0.978 ± 0.076	0.95 ± 0.019
ITGA5 (UniProt P08648)	0.96 ± 0.06	0.9552 ± 0.0059	0.974 ± 0.026	0.955 ± 0.06	0.955 ± 0.057	0.876 ± 0.049
UniProt P14618 and related entries	1 ± 0.04	0.969 ± 0.034	0.931 ± 0.055	0.926 ± 0.068	0.956 ± 0.039	0.939 ± 0.048
UniProt P07437	1.03 ± 0.076	0.923 ± 0.03	0.956 ± 0.052	0.973 ± 0.13	0.95 ± 0.056	0.946 ± 0.07
XRCC6 (UniProt P12956)	0.865 ± 0.17	1.07 ± 0.15	0.88 ± 0.1	0.972 ± 0.072	1.04 ± 0.12	0.805 ± 0.15
DBT (UniProt P11182)	1.05 ± 0.07	1.01 ± 0.095	0.983 ± 0.094	1.02 ± 0.22	1.05 ± 0.17	1.05 ± 0.13
NCK1 (UniProt P16333)	0.975 ± 0.044	0.986 ± 0.053	0.991 ± 0.03	0.972 ± 0.053	0.964 ± 0.054	0.958 ± 0.042
ESD (UniProt P10768)	0.982 ± 0.03	0.937 ± 0.041	0.897 ± 0.039	0.958 ± 0.065	0.915 ± 0.043	0.917 ± 0.051
DARS (UniProt P14868)	1.05 ± 0.083	0.978 ± 0.039	0.968 ± 0.027	0.917 ± 0.057	1.01 ± 0.056	0.973 ± 0.068

Another view of part of the listing above.
Target,NP40-soluble protein abundance (concentration: 1mM),NP40-soluble protein abundance (concentration: 2mM),NP40-soluble protein abundance (concentration: 4mM),NP40-soluble protein abundance (concentration: 6mM),NP40-soluble protein abundance (concentration: 8mM),NP40-soluble protein abundance (concentration: 10mM)
UniProt P10586 and related entries,0.975 ± 0.02,1.02 ± 0.041,1.01 ± 0.066,1.01 ± 0.029,0.948 ± 0.041,0.988 ± 0.039
UniProt P09651 and related entries,1.06 ± 0.14,1.09 ± 0.12,1.07 ± 0.12,1.22 ± 0.17,1.1 ± 0.1,1.17 ± 0.075
ACYP1 (UniProt P07311),0.916 ± 0.053,0.928 ± 0.018,0.884 ± 0.036,0.923 ± 0.033,0.873 ± 0.02,0.88 ± 0.049
UniProt P15529-2|P15529-3|P15529-4|P15529-5|P15529-6|P15529-7|P15529-16,0.929 ± 0.056,0.929 ± 0.059,0.938 ± 0.04,0.964 ± 0.03,0.9178 ± 0.0073,0.902 ± 0.033
FTH1 (UniProt P02794),1.01 ± 0.17,0.965 ± 0.14,0.955 ± 0.11,1.01 ± 0.22,0.985 ± 0.11,0.916 ± 0.17
HSP90B1 (UniProt P14625),0.941 ± 0.015,0.946 ± 0.03,0.91 ± 0.019,0.933 ± 0.049,0.909 ± 0.04,0.927 ± 0.049
LDHB (UniProt P07195),0.855 ± 0.22,1.03 ± 0.12,0.815 ± 0.16,1 ± 0.1,1.01 ± 0.14,0.835 ± 0.19
UniProt P15882 and related entries,1.04 ± 0.025,1.027 ± 0.0095,0.99 ± 0.045,0.967 ± 0.022,1.041 ± 0.0092,1.02 ± 0.06
UniProt P11802 and related entries,1.02 ± 0.081,1.01 ± 0.054,0.988 ± 0.11,0.98 ± 0.087,0.978 ± 0.076,0.95 ± 0.019
ITGA5 (UniProt P08648),0.96 ± 0.06,0.9552 ± 0.0059,0.974 ± 0.026,0.955 ± 0.06,0.955 ± 0.057,0.876 ± 0.049
UniProt P14618 and related entries,1 ± 0.04,0.969 ± 0.034,0.931 ± 0.055,0.926 ± 0.068,0.956 ± 0.039,0.939 ± 0.048
UniProt P07437,1.03 ± 0.076,0.923 ± 0.03,0.956 ± 0.052,0.973 ± 0.13,0.95 ± 0.056,0.946 ± 0.07
XRCC6 (UniProt P12956),0.865 ± 0.17,1.07 ± 0.15,0.88 ± 0.1,0.972 ± 0.072,1.04 ± 0.12,0.805 ± 0.15
